# Measured values: PubChem BioAssay AID504444 (National Center for Advancing Translational Sciences (NCATS), 2011)
# The whole screen tested about 360,000 compounds, of which about 7,500 (2.1%) were called active. Inconclusive results, whose numbers are uncertain, are shown with a selection of clear calls. Calls come from the whole dose curve; as a rule, active = well fitted inhibition curve with a large enough effect; inconclusive = small, poorly fitted or top-dose-only effect, or effect the other way; inactive = flat fitted curve, though single readings scatter. Where the call is inconclusive, the potency comes from a doubtful curve fit.
# Experiment: Nrf2 qHTS screen for inhibitors; note: nearly all actives have a fitted effect of over 60% in size
# Settings: A549 ARE-Fluc reporter, luciferase luminescence, 18-24 h; series mostly up to 46 µM
# In short: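 Two sequential reads on A549 ARE_Fluc cells exposed to compound for 18-24 h: a CellTiter-Fluor fluorescence read for viability, then a luciferase luminescence read for Nrf2/ARE activity.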
# Potency is the fitted concentration of half-maximal effect.
row,Compound,Potency
1,CC(=O)Nc1ccc(NC(=O)CCOc2cc(C)ccc2C)cc1,"inconclusive: 18.4 µM [activator, partial curve, poor fit]"
2,O=C(Nc1cccnc1)c1ccc(-c2ccc(Cl)cc2)o1,"inconclusive: 9.2 µM [activator, partial curve]"
3,CCOC(=O)N1CCN(CC(=O)Nc2c(C(=O)OC)[nH]c3ccccc23)CC1,"inconclusive: 20.6 µM [falling, partial curve, poor fit]"
4,Cc1cc(Nc2cccc(C(F)(F)F)c2)nc2ccc(NC(=O)c3cncc(Br)c3)cc12,active: 20.6 µM
5,COc1ccc(NC(=S)NCCC2=CCCCC2)cc1OC,"inconclusive: 25.9 µM [activator, single point]"
6,CN(C)C(=O)c1nc2ccccc2s1,"inconclusive: 14.6 µM [activator, partial curve, poor fit]"
7,Cc1ccc(CN(C(=O)c2ccc([N+](=O)[O-])cc2)c2ccccn2)cc1,inactive
8,Cc1nc(-c2ccc(NC(=O)c3ccc(Br)o3)cc2)cs1,"inconclusive: 0.651 µM [activator, partial curve]"
9,Cc1oc2cc(Br)c(O)c(Br)c2c1-c1ccccc1,inactive
10,CCCCCCNc1nc(Cl)nc(NC(C)(C)CO)n1,inactive
11,CN(C(=O)c1cccc(NC(=O)C2CCCN(C(=O)OC(C)(C)C)C2)c1)C1CCC1 (configuration not stated),"inconclusive: 29.1 µM [falling, single point]"
12,Cc1onc(-c2ccccc2Cl)c1C(=O)NCc1nc(-c2ccc(C(F)(F)F)cc2)no1,active: 25.9 µM
13,COc1cccc(/C=C2\SC(=O)N(CCC(=O)N3CCCCC3CCO)C2=O)c1 (configuration not stated),"inconclusive: 16.4 µM [falling, partial curve, poor fit]"
14,c1ccc(CSc2ncnc3c2oc2ccccc23)cc1,"inconclusive: 2.06 µM [falling, partial curve, poor fit]"
15,Cc1ccc(Cl)cc1N1CCN(S(=O)(=O)c2ccc3c(c2)CC(=O)N3C)CC1,"inconclusive: 25.9 µM [falling, single point]"
16,COc1ccc(CNC(=O)Cn2nc(C)c3c(C)n(-c4ccc(C)cc4)nc3c2=O)cc1OC,active: 23.1 µM
17,Cc1c(C(=O)N2CCN(C)CC2)oc2ccc(Br)cc12,"inconclusive: 9.2 µM [activator, partial curve]"
18,O=C(CN1CC[n+]2c(-c3ccccc3)csc21)c1ccc(Br)cc1,inactive
19,COc1cc(OC)cc(C(=O)N(Cc2cc3cc(C)ccc3[nH]c2=O)C(C)C)c1,"inconclusive: 23.1 µM [activator, single point]"
20,O=C(N/N=C/c1ccccn1)c1ccc(Br)o1,"inconclusive: 35.5 µM [falling, single point]"
21,CS(=O)(=O)NCc1ccc(C(=O)NCCOc2ccccc2)cc1,"inconclusive: 0.517 µM [activator, full curve, poor fit]"

row,Compound,Potency
1,COc1ccc(/C=C2\CCC(C3CCCC3)C2=O)cc1Cn1cccn1 (configuration not stated),"inconclusive: 25.9 µM [falling, single point]"
2,Cc1nc(-n2cc(F)c(=O)[nH]c2=O)c2nc(C)oc2n1,"inconclusive: 1.16 µM [falling, full curve, poor fit]"
3,CCOC(=O)C1CCCN(S(=O)(=O)c2ccc3c(c2)N(C)C(=O)CC(=O)N3C)C1 (configuration not stated),"inconclusive: 20.6 µM [falling, single point]"
4,Cc1cccc(NC(=O)N2CCN(Cc3ccc(Cl)cc3)CC2)c1,"inconclusive: 20.6 µM [activator, single point]"
5,COc1ccc(C2/C(=C(\O)c3ccc4c(c3)CC(C)O4)C(=O)C(=O)N2Cc2cccnc2)c(OC)c1 (configuration not stated),inactive
6,CCOC(=O)Cc1nnc(NC(=O)CSc2nnc3c(n2)[nH]c2ccccc23)s1,"inconclusive: 7.31 µM [activator, partial curve, poor fit]"
7,CC(C)(C)Nc1c(N)c(=O)oc2ccccc12,"inconclusive: 0.13 µM [falling, full curve, poor fit]"
8,COc1ccc(CCNC(=O)CSc2nc(O)c(C(C)C)c(=O)[nH]2)cc1OC,inactive
9,COCCCNC(=O)Cn1c(=O)n(-c2ccc(Cl)cc2)c(=O)c2c3c(sc21)CCCCC3,inactive
10,COc1cccc(CN(C)C(=O)c2ccc(NS(=O)(=O)c3ccc4[nH]c(=O)[nH]c4c3)cc2)c1OC,inactive
11,Cc1cccc(C(=O)NC(NCc2ccco2)C(Cl)(Cl)Cl)c1 (configuration not stated),"inconclusive: 32.6 µM [falling, single point]"
12,CCC(=O)Nc1ccccc1C(=O)OC(c1ccccc1)c1ccccc1,inactive
13,O=C(Nc1nc2ccccc2[nH]1)c1ccc(Cl)c([N+](=O)[O-])c1,"inconclusive: 23.1 µM [activator, partial curve]"
14,O=S(=O)(NCc1ccco1)c1ccc(S(=O)(=O)N2CCCC2)cc1,"inconclusive: 14.6 µM [falling, partial curve]"
15,C[C@H](CO)N1C[C@H](C)[C@@H](CN(C)Cc2ccccc2)Oc2c(NC(=O)C3CCCCC3)cccc2C1=O,"inconclusive: 18.4 µM [falling, single point]"
16,O=C(c1cccc([N+](=O)[O-])c1)N1CCN(c2n[nH]c(=O)[nH]c2=O)CC1,inactive
17,Cc1cccc(NC(=O)c2nc[nH]c2C(=O)N[C@@H](C)C(=O)OC(C)(C)C)c1,"inconclusive: 20.6 µM [falling, single point]"
18,Cc1ccc(NC(=O)NC(=O)CN2C(=O)NC3(CCc4ccccc43)C2=O)c(C)c1 (configuration not stated),"inconclusive: 25.9 µM [falling, partial curve, poor fit]"
19,C/C(=N\N1CCN(Cc2ccccc2Cl)CC1)c1ccc([N+](=O)[O-])cc1,"inconclusive: 23.1 µM [falling, single point]"
20,CCOC(=O)c1cc2c(=O)n3ccccc3nc2n(CC2CCCO2)c1=NC(=O)c1cc(C)cc(C)c1 (configuration not stated),"inconclusive: 6.51 µM [falling, single point]"
21,O=c1oc2cc(S(=O)(=O)NCCCO)ccc2c2ccc(S(=O)(=O)NCCCO)cc12,inactive

# Quoted from above, three compounds:
row,Compound,Potency
8,Cc1nc(-c2ccc(NC(=O)c3ccc(Br)o3)cc2)cs1,"inconclusive: 0.651 µM [activator, partial curve]"
9,Cc1oc2cc(Br)c(O)c(Br)c2c1-c1ccccc1,inactive
10,CCCCCCNc1nc(Cl)nc(NC(C)(C)CO)n1,inactive
